Measured values taken from US20260034146A1, “NEUROACTIVE 19-ALKOXY-17-S[…], PRODRUGS THEREOF, AND METHODS OF TREATMENT USING SAME” (priority 2012, published 2026).
For at least one compound, name, drawing or mass did not settle the structure.

Key:
GABAA receptors = conditions: in contrast to alphaxalone; cited from earlier work
[1] = molecular target: rat α1β2γ2L type GABAA receptors expressed in Xenopus laevis oocytes (Rattus norvegicus (Rat), UniProt P62813+P63138, INS375LLRMFSFK); experiment: Oocyte electrophysiology: potentiation of chloride currents mediated by 2 μM GABA, and direct gating; type: cell-based; conditions: ± SEM
Experimental: The compounds of the present disclosure were evaluated for the ability to potentiate chloride currents mediated by 2 μM GABA at rat α1β2γ2L type GABAA receptors expressed in Xenopus laevis oocytes and the results are shown in Table 2.
The GABA concentration used for the control response was 2 μM. Each compound was evaluated on at least four different oocytes at the concentrations indicated, and the results reported are the ratio of currents measured in the presence/absence of added compound. Gating represents direct current gated by 10 μM compound in the absence of GABA, and this current is reported as the ratio of compound only current/2 μM GABA current. Error limits are calculated as standard error of the mean (N≥4). Methods used are known in the art (see Jiang, X., et al.).

Structure (SMILES) | allosteric activity at GABAA receptors (GABAA receptors) | oocyte electrophysiology, ratio of currents in presence/absence of compound, 0.1 μM ([1]; 0.1 μM compound, 2 μM GABA control, N≥4 oocytes) | oocyte electrophysiology, ratio of currents in presence/absence of compound, 1 μM ([1]; 1 μM compound, 2 μM GABA control, N≥4 oocytes) | oocyte electrophysiology, ratio of currents in presence/absence of compound, 10 μM ([1]; 10 μM compound, 2 μM GABA control, N≥4 oocytes) | (gating) 10 μM, ratio of compound only current/2 μM GABA current ([1]; direct current gated by 10 μM compound in the absence of GABA, N≥4)
CC(=O)C1=CC[C@H]2[C@@H]3CC[C@H]4C[C@H](O)CC[C@]4(C)[C@H]3C(=O)C[C@]12C [Δ^16-alphaxalone] | greatly diminished allosteric activity |  |  |  | 
COC[C@]12CC[C@@H](O)C[C@@H]1CC[C@@H]1[C@@H]2CC[C@]2(C)C(=O)CC[C@@H]12 [11, KK-125, (3α,5α)-3-Hydroxy-19-methoxyandrostan-17-one] |  | 0.71 ± 0.02 | 0.76 ± 0.07 | 2.17 ± 0.12 | 0 ± 0.07
